Screen size: about 320,000 compounds; about 22,000 (6.9%) were called active. The inconclusive results got no clear call from the source; some entries with a clear call stand among them for comparison. Calls come from the whole dose curve; as a rule, active = well fitted inhibition curve with a large enough effect; inconclusive = small, poorly fitted or top-dose-only effect, or another doubt; inactive = no such curve, though single readings can be large or run the other way. Potencies beside an inconclusive call are fits to weak or partial responses and may not hold up.
Assay: Primary qHTS for delayed death inhibitors of the malarial parasite plastid, 96 hour incubation
Settings: P. falciparum luciferase reporter growth; series mostly up to 28.7 µM; activity change, negative = inhibition: at the top concentration
In short: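 P. falciparum expressing integrated firefly luciferase grown in erythrocytes (2% hematocrit, 0.05% parasitemia final) with compounds for 96 hours at 37 C, 5% CO2. Growth inhibition read as loss of luminescence after adding luciferase detection reagent.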
% is set by controls: 0 for no effect and ±100 for the full control effect; potency is the fitted concentration of half-maximal effect.

| Structure (SMILES) | activity change, negative = inhibition | Potency |
| --- | --- | --- |
| COc1ccc(NC(=O)CCC(=O)Nc2nnc(C(F)(F)F)s2)c(OC)c1 | inactive: -19.3% |  |
| O=C(CCN1CCCO1)NC1CCCc2c1cnn2-c1ccccc1F (stereo unspecified) |  | inconclusive: 18.5 µM [inhibitor, single point] |
| CNC(=S)Nc1ccc(C(N)=O)cc1 |  | inconclusive: 18.5 µM [inhibitor, single point] |
| CC(C)c1ccccc1-n1c(SCC(=O)c2ccc3c(c2)NC(=O)CO3)nc2ccccc2c1=O |  | inconclusive: 1.47 µM [inhibitor, full curve, poor fit] |
| CCN(CC(=O)Nc1ccc(C#N)c(Cl)c1)CC(=O)NC(C)(C)C |  | inconclusive: 11.7 µM [inhibitor, partial curve, poor fit] |
| CCCCn1c(C(C)NC(=O)c2cccs2)nc2ccccc21 (stereo unspecified) | inactive: 32.9% |  |
| O=C(c1ccc(-c2ccccc2)cc1)C1CCCN(Cc2ccn[nH]2)C1 (stereo unspecified) |  | inconclusive: 18.5 µM [inhibitor, single point] |
| COc1ccc(/C=C(\NC(=O)c2ccccc2)C(=O)N2CCC(C)CC2)cc1 | inactive: -65.4% |  |
| Cc1ccc(SCc2c(C(=O)N/N=C/C3CC=CCC3)nnn2-c2nonc2N)cc1 (stereo unspecified) | inactive: 3.06% |  |
| N#Cc1ccc(C(=O)Nc2nnc(-c3cccs3)o2)cc1 |  | inconclusive: 18.5 µM [inhibitor, single point] |
| Cc1ccc(NC(=S)N2CCC(c3ccccc3)C2)c(Cl)c1 (stereo unspecified) | inactive: 6.44% |  |
| O=C(O)CCC(=O)c1ccc2c(c1)OCCO2 |  | inconclusive: 18.5 µM [inhibitor, single point] |
| NNC(=O)c1ccc([N+](=O)[O-])c(CS(=O)(=O)c2ccc(Cl)cc2)c1 |  | inconclusive: 2.08 µM [inhibitor, single point] |
| COc1ccc(CCn2nnnc2C(c2ccc(C)cc2)N2CCN(C)CC2)cc1OC (stereo unspecified) | inactive: 8.9% |  |
| COc1cccc(C(=O)C2CN(C)CC2c2ccc(Cl)cc2)c1 (stereo unspecified) |  | inconclusive: 11.7 µM [inhibitor, single point] |
| COc1ccc(S(=O)(=O)n2nc(C)cc2C)cc1OC |  | inconclusive: 18.5 µM [inhibitor, single point] |
| Nc1ccccc1Sc1nc2ccccc2[nH]1 |  | inconclusive: 10.4 µM [inhibitor, single point] |
| COc1ccc(C(CNC(=O)C(C)Oc2ccc(Br)cc2)N2CCCC2)cc1 (stereo unspecified) |  | inconclusive: 18.5 µM [inhibitor, single point] |
| COC(=O)C1=C(C)NC(=O)CC1c1cccc(Cl)c1Cl (stereo unspecified) |  | inconclusive: 18.5 µM [inhibitor, single point] |
| O=C(NCc1ccccc1)C1=C[C@@H](c2csc3ccccc23)C[C@@H](OCCCCO)O1 |  | inconclusive: 16.5 µM [inhibitor, single point] |
| CC(=O)Nc1c(C(=O)Nc2ccc3c(c2)OCO3)oc2ccccc12 | inactive: 268% |  |
| COc1ccc(CCN2CC(C(=O)N3CCN(C(C)=O)CC3)CCC2=O)cc1 (stereo unspecified) | inactive: -18.8% |  |
| CCOC(=O)C1=C(CC)OC(N)=C(C#N)C1c1ccc(F)cc1F (stereo unspecified) |  | inconclusive: 18.5 µM [inhibitor, single point] |
| ON1C(c2ccccc2C(F)(F)F)N(O)[C@H]2CCCC[C@H]21 (stereo partly specified) | inactive: 11.9% |  |

| Structure (SMILES) | activity change, negative = inhibition | Potency |
| --- | --- | --- |
| CC(C)(C)C(=O)Nc1ccc(C(=O)N/N=C/c2ccccc2OC(=O)c2ccc(Cl)cc2)cc1 |  | inconclusive: 18.5 µM [inhibitor, single point] |
| CC(C)N(Cc1nnc(-c2ccccc2Br)o1)C(=O)c1cc(Cl)nc2ccccc12 |  | active: 14.7 µM |
| CC(=O)OC1COC(N2CCc3cc([N+](=O)[O-])ccc32)C(OC(C)=O)C1OC(C)=O (stereo unspecified) |  | inconclusive: 0.329 µM [inhibitor, partial curve, poor fit] |
| COc1ccc(Cn2c(O)c(C=NCCCn3ccnc3)c(=O)[nH]c2=O)cc1 |  | inconclusive: 0.0586 µM [inhibitor, full curve] |
| COC(=O)CNC(=O)c1ccc2c(c1)S(=O)(=O)c1ccccc1C2=O |  | inconclusive: 16.5 µM [inhibitor, partial curve, poor fit] |
| CN(C)S(=O)(=O)c1cccc(NC(=S)NC(=O)c2ccco2)c1 |  | inconclusive: 0.185 µM [inhibitor, full curve, poor fit] |
| Cc1c(Nc2cc(Cl)c3nonc3c2[N+](=O)[O-])c(=O)n(-c2ccccc2)n1C | inactive: -79.1% |  |
| COc1ccc(C2CC(=O)C=C(NCc3ccc4c(c3)OCO4)C2)cc1 (stereo unspecified) | inactive: 3.03% |  |
| CCOC(=O)CNC(=O)/C=C/c1ccc2c(c1)OCO2 |  | inconclusive: 4.15 µM [inhibitor, single point] |
| COc1ccc(CNC(=O)C2CCCN2S(=O)(=O)c2ccc(C)cc2)cc1 (stereo unspecified) |  | inconclusive: 0.586 µM [inhibitor, partial curve, poor fit] |
| O=C(NC1CCCc2c1cnn2-c1cc(F)cc(F)c1)c1ccc[n+]([O-])c1 (stereo unspecified) | inactive: -13.5% |  |
| Cc1cc([N+](=O)[O-])nn1CC(=O)N(C)Cc1ccccc1 |  | inconclusive: 13.1 µM [inhibitor, single point] |
| CC(=O)CSc1ccc(-c2nc3ccccc3[nH]2)cn1 |  | active: 8.28 µM |
| O=C(Nc1ccc2c(c1)OCO2)c1ccc(S(=O)(=O)N2CCCC2)cc1 |  | inconclusive: 5.22 µM [inhibitor, partial curve] |
| Cc1ccc(C(=O)N/N=C2\CCCc3ccccc32)c(C)c1 | inactive: 274% |  |
| C=CCN1C2=NCCCN2c2ccccc21 |  | inconclusive: 0.0104 µM [inhibitor, full curve, poor fit] |
| COc1ccc(C(=O)NCc2cc3ccccc3n2C)cc1 |  | inconclusive: 9.28 µM [inhibitor, partial curve, poor fit] |
| Cc1cccc(S(=O)Cc2ccc(C(=O)N3CCOCC3)o2)c1 (stereo unspecified) |  | inconclusive: 18.5 µM [inhibitor, single point] |
| CCOC(=O)N1CCN(C(=O)c2cccn3c(=O)c4cc(Cl)ccc4nc23)CC1 |  | inconclusive: 4.15 µM [inhibitor, full curve] |
| NS(=O)(=O)c1cccc(NC(=O)CC(NC(=O)c2ccccc2Cl)c2ccccc2)c1 (stereo unspecified) | inactive: 15.7% |  |
| COc1ccc(NS(=O)(=O)c2ccc3[nH]c(=O)[nH]c3c2)cc1 |  | inconclusive: 14.7 µM [inhibitor, single point] |
| O=C(CNS(=O)(=O)c1ccc(Br)cc1)NCc1cccnc1 | inactive: -2.54% |  |
| CC(Oc1ccc(Cl)cc1Cl)C(=O)/C=C/N(C)C (stereo unspecified) |  | inconclusive: 0.185 µM [inhibitor, full curve, poor fit] |
| CCNC(=S)N=Nc1c(O)[nH]c2ccc([N+](=O)[O-])cc12 |  | active: 6.57 µM |

| Structure (SMILES) | activity change, negative = inhibition | Potency |
| --- | --- | --- |
| CCCCC(=O)Nc1ccc(NC(=O)c2ccc([N+](=O)[O-])cc2Cl)cc1OC | inactive: 4.51% |  |
| CCc1nc(SCc2ccc(OCC(C)C)cc2)n[nH]1 |  | active: 10.4 µM |
| COc1cc(/C=C2\SC(=O)NC2=O)ccc1OCc1ccc(Cl)nc1 |  | inconclusive: 3.7 µM [inhibitor, full curve] |
| CC1(C)Cc2c(c(-c3ccco3)nc3sc4c(NCCN5CCOCC5)ncnc4c23)CO1 |  | inconclusive: 2.94 µM [inhibitor, single point] |
| COc1ccc(Cn2nnnc2C(c2ccccc2Cl)N2CCN(C)CC2)cc1 (stereo unspecified) | inactive: 117% |  |
| Cc1cc2oc(=O)cc(-c3cc4ccccc4o3)c2cc1O |  | active: 2.62 µM |
| COP(=S)(OC)Oc1ccc(S(=O)(=O)N(C)C)cc1 | inactive: -0.702% |  |
| Cc1ccc(C)c(N=C2NC(=O)CS2)c1 | inactive: 50.1% |  |
| CCOC(=O)c1c(S(=O)(=O)Nc2ccccn2)c(C)n(C)c1C |  | inconclusive: 18.5 µM [inhibitor, partial curve, poor fit] |
| COc1ccccc1/C=N/NC(=O)CC(=O)NCc1ccccc1 |  | inconclusive: 1.65 µM [inhibitor, partial curve, poor fit] |
| CCCc1cc(C(=O)OC)c(NC(=O)c2cc(C)on2)s1 |  | inconclusive: 18.5 µM [inhibitor, single point] |
| CCCn1c(N/N=C(C)\C=C\c2ccccc2)nc2c1c(=O)[nH]c(=O)n2C | inactive: 19% |  |
| O=c1[nH]cc(-c2ccc(Br)cc2)n1Cc1ccccc1 |  | inconclusive: 20.8 µM [inhibitor, partial curve, poor fit] |
| Cc1nn(-c2ccccc2)c(C)c1-c1nnc(-c2c(C)nn(-c3ccccc3)c2C)o1 |  | inconclusive: 4.65 µM [inhibitor, partial curve, poor fit] |
| CC(C)CCn1cnc2c1c(=O)n(CC(=O)NC(N)=O)c(=O)n2Cc1ccccc1 |  | inconclusive: 0.928 µM [inhibitor, full curve] |
| CCc1noc(C)c1C(=O)Nc1cc(S(=O)(=O)N2CCCCC2)ccc1N(C)C |  | inconclusive: 10.4 µM [inhibitor, partial curve, poor fit] |
| O=C(Nc1ccc(OC(=O)c2cccs2)cc1)c1ccco1 |  | inconclusive: 0.147 µM [inhibitor, full curve, poor fit] |
| O=C(Nc1ccc(-c2nnc3n2CCCCC3)cc1)c1cc2ccccc2o1 |  | inconclusive: 7.38 µM [inhibitor, partial curve, poor fit] |
| c1ccc(Cc2nc3ccccc3[nH]2)cc1 |  | inconclusive: 1.65 µM [inhibitor, partial curve, poor fit] |
| Nn1c(SCC(=O)NCCc2ccc(F)cc2)nnc1C1CCCCC1 |  | inconclusive: 18.5 µM [inhibitor, single point] |
| CCc1ccc2oc(-c3cc(N)cc(C)c3O)nc2c1 | inactive: 28.9% |  |
| CN(C)CCn1c2c(c(SCC(=O)Nc3ccc4c(c3)OCCO4)nc1=O)CCC2 | inactive: 6.3% |  |
| Cc1nn(-c2ccccc2)c(N2CCCC2)c1/C=N/NC(=O)c1cc(-c2cccs2)nc2ccccc12 |  | inconclusive: 14.7 µM [inhibitor, partial curve, poor fit] |

Copied from the list.
Value of O=C(Nc1ccc(OC(=O)c2cccs2)cc1)c1ccco1 under Potency: inconclusive: 0.147 µM [inhibitor, full curve, poor fit]
Value of O=C(Nc1ccc(-c2nnc3n2CCCCC3)cc1)c1cc2ccccc2o1 under Potency: inconclusive: 7.38 µM [inhibitor, partial curve, poor fit]
Value of Cc1nn(-c2ccccc2)c(N2CCCC2)c1/C=N/NC(=O)c1cc(-c2cccs2)nc2ccccc12 under Potency: inconclusive: 14.7 µM [inhibitor, partial curve, poor fit]
Value of CCOC(=O)c1c(S(=O)(=O)Nc2ccccn2)c(C)n(C)c1C under Potency: inconclusive: 18.5 µM [inhibitor, partial curve, poor fit]
Value of c1ccc(Cc2nc3ccccc3[nH]2)cc1 under Potency: inconclusive: 1.65 µM [inhibitor, partial curve, poor fit]
